Assay results: paper PMC2638020
These are yes or no findings as the source states them, for the method shown. One block for each substance: values may come before it.

Chains of the proteins cited; added tags and fusions are not shown. Lines headed by an entry give the natural chain unless they say otherwise; changes in a name come on top. A line that says so, or that is headed by a name, gives the form on record, which may keep a tag or linker. Residues count along the entry.
UniProt P23469, residues 107-697: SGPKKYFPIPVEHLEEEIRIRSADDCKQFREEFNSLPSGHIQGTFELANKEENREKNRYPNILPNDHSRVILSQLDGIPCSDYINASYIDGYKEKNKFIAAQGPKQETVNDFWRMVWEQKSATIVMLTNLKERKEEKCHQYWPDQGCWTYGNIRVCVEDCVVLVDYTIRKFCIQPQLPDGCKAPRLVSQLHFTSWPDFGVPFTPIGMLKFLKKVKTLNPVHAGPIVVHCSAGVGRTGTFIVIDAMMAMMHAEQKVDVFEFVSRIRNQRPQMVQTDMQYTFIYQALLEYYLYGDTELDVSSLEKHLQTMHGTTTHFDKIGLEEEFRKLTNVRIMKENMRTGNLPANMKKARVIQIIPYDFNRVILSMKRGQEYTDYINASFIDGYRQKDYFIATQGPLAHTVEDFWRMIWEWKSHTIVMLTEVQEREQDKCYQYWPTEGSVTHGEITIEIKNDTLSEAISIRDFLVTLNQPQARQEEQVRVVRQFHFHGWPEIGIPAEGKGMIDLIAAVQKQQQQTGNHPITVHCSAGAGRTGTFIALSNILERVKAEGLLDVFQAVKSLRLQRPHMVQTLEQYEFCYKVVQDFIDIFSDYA
RPTPγ tandem phosphatase domains, mutant DDKK (P23470, form named): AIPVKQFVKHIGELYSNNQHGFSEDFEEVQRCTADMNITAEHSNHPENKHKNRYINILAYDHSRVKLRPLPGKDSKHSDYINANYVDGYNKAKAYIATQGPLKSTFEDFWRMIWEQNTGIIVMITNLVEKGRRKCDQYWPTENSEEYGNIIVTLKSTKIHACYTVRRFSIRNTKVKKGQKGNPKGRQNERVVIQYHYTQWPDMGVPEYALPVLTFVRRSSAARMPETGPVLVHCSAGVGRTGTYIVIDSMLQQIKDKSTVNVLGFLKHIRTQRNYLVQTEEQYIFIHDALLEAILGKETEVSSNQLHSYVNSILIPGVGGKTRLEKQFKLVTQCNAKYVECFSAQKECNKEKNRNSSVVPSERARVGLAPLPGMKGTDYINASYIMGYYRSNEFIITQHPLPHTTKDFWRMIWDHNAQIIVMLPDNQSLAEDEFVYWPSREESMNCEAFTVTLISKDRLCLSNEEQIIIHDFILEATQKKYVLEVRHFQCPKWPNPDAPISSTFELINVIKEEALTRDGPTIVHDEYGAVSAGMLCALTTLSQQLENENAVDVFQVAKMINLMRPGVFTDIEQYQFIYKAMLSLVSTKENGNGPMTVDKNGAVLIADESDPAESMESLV
RPTPγ tandem phosphatase domains, mutant RKEE (P23470, form named): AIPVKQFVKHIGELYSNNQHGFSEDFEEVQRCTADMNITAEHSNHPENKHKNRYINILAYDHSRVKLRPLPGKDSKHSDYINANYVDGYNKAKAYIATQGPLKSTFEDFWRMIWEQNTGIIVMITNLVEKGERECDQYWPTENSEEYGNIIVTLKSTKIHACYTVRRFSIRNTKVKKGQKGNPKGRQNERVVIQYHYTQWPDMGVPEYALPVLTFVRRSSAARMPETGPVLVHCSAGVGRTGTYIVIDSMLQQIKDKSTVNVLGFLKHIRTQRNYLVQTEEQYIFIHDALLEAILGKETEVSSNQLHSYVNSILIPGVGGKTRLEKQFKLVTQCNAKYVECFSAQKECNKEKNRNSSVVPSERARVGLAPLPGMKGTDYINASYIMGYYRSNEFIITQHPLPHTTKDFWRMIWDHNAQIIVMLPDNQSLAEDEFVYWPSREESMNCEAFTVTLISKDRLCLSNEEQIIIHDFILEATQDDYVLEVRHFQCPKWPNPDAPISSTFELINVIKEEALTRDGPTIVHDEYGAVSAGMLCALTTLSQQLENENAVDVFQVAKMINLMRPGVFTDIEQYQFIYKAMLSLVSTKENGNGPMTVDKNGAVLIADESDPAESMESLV

Assays:
[1] = target: RPTPɛ tandem phosphatase domains (human) (UniProt P23469); assay: AUC; sedimentation velocity; 0.2–0.8 mg/ml protein in 10 mM HEPES (pH 7.5), 150 mM NaCl, 1 mM TCEP, 8°C, 50,000 rpm; c(s) distributions (SEDFIT); both purified
[2] = target: RPTPγ tandem phosphatase domains, mutant DDKK (human) (UniProt P23470); assay: AUC; sedimentation equilibrium; 0.2, 0.4 and 0.8 mg/ml, 7500 and 10,000 rpm; global fit with a self-association model; dimer to monomers; both purified
[3] = target: RPTPγ tandem phosphatase domains, mutant DDKK (human) (UniProt P23470); assay: AUC; sedimentation velocity; 0.2–0.8 mg/ml protein in 10 mM HEPES (pH 7.5), 150 mM NaCl, 1 mM TCEP, 8°C, 50,000 rpm; c(s) distributions (SEDFIT); both purified
[4] = target: RPTPγ tandem phosphatase domains, mutant RKEE (human) (UniProt P23470); assay: AUC; sedimentation equilibrium; 0.2, 0.4 and 0.8 mg/ml, 7500 and 10,000 rpm; global fit with a self-association model; dimer to monomers; both purified
[5] = target: RPTPγ tandem phosphatase domains, mutant RKEE (human) (UniProt P23470); assay: AUC; sedimentation velocity; 0.2–0.8 mg/ml protein in 10 mM HEPES (pH 7.5), 150 mM NaCl, 1 mM TCEP, 8°C, 50,000 rpm; c(s) distributions (SEDFIT); both purified

binding [1]: no binding (tested: 0.2–0.8 mg/ml)
Substance: RPTPɛ tandem phosphatase domains (from UniProt P23469 107-697) (domain or fragment)

binding [3]: no binding (tested: 0.4 mg/ml)
Substance: RPTPγ tandem phosphatase domains, mutant DDKK (from UniProt P23470 827-1445) (domain or fragment)
binding [2]: no binding (tested: 0.2, 0.4, and 0.8 mg/ml)

binding [5]: no binding (tested: 0.8 mg/ml)
Substance: RPTPγ tandem phosphatase domains, mutant RKEE (from UniProt P23470 827-1445) (domain or fragment)
binding [4]: no binding (tested: 0.2, 0.4, and 0.8 mg/ml)
